Among the data in patent US20220204630A1 (SUNSHINE LAKE PHARMA, published 2022) are binding values, retold here.

First the molecules themselves.
B1: 1B9 chimeric antibody (antibody, human IgG4 S228P, kappa, F234A L235A, V domains shown)
VH: QVHLQQSGAELMKPGASVKISCKATGYTFNIYWIDWVKQRPGHGLEWIGEILPGSGNTHYNENFKGKATMTADTSSNTAYMQLTSLTSEDSAVYYCARTDGRGYFDYWGQGTTLTVSS
VL: DIVLTQSPASLVVSLGQRATISCRTSKSVSSSAYSYMHWYQQKPGQPPKVLIYLASNLESGVPARFSGSGSGTDFTLNIHPVEEEDAATYYCQHSRELPFTFGSGTKLEIKR
notes: expressed in CHO cells
B2: 27H3 chimeric antibody (antibody, human IgG4 S228P, kappa, F234A L235A, V domains shown)
VH: QVQLQQSGAELMKPGASVKISCKTTGYRFSSYWIEWVKQRPGHGLEWLGEILPGRGIINYNENFRGKATFTADTSSNTAYVQLSSLTSEDSAVYFCARTDPPYFGVWGAGTTVTVSS
VL: QAVVTQESALTTSPGETVTLTCRSSTGAVTISNYANWVQEKPDHLFTGLIGGTNNRPPGVPARFSGSLIGDKAALTITGAQTEDEAIYFCVLWYSNHWVFGGGTKLTVLR
notes: expressed in CHO cells
B3: 23E12 chimeric antibody (antibody, human IgG4 S228P, kappa, F234A L235A, V domains shown)
VH: QVQLQQSGAELVRPGTSVKISCKASGYAFTNYWLGWMKQRPGHGLEWIGDFYPRTGNTFYNENFKGKVTLTADKSSNTAYMQLSSLTSEDSAVYLCARAGTGFDYWGQGTTLTVSS
VL: SIVMTQSPKSMSMSVGERVTLSCKASENVGGYVSWYQQKPDQSPKLLIYGASSRHTGVPDRFTGSGSETDFTLTISSVQAEDLAAYHCGQNYIYPFTFGGGTKLEIKR
notes: expressed in CHO cells
B4: 4H4 chimeric antibody (antibody, human IgG4 S228P, kappa, F234A L235A, V domains shown)
VH: EVQLQQSGPELVKPGASMKISCKASGYSFTGYTMNWVKQSHGKNLEWIGLINPYNGGTRYNQKFKGKATLTVDKSSSTAYMELLSLTSEDSAVYYCASSSYRNDGNWYFDVWGAGTTVTVSS
VL: DIVMTQSPAIMSASPGEKVTMTCSASSSVSYMHWYQQKSGTSPKRWIYDTSKLASGVPARFSGSGSGTSYSLTISSMETEDAATYYCQQWSSNPPTFGGGTKLELKR
notes: expressed in CHO cells
B5: 21E5 chimeric antibody (antibody, human IgG4 S228P, kappa, F234A L235A, V domains shown)
VH: QVQLQQSGAELMKPGASMKISCKATGYTFSTYWIEWVKQRPGHGLEWIGENLPGRHITNYNEKFKGKATFTADTSSNTAYMQLSSLTSEDSAVYYCARGRGTYYFDYWGQGTPLTVSS
VL: DIVMTQAAFSTPVTLGTSASISCRSSQSLLHSNGITYLYWYLQKPGQSPQLLIYQMSNLASGVPDRFSSSGSGTDFTLRISRVEAEDVGVYYCAQNLEFPFTFGSGTKLEIKR
notes: expressed in CHO cells
B6: 2008 chimeric antibody (antibody, human IgG4 S228P, kappa, F234A L235A, V domains shown)
VH: EVLLQQSGPELVKPGASMKISCKASVYSFTAYTMNWVKQSHGKNLEWIGLINPHNGGTRYNQKFKGKATLTLDKSSSTAYMDLLSLTSEDSAVYYCAISRYGSSSFYFDVWGAGTTVAVSS
VL: QIVLSQSPAILSASPGEKVTMTCRASSSISYMHWYQQKPGSSPKPWISATSNLASGVPARFSGSGSGTSYSLTISGVEAEDAATYYCQQWSSNPPTFGGGTNLEIKR
notes: also called 20C8
B7: 2A5 chimeric antibody (antibody, human IgG4 S228P, kappa, F234A L235A, V domains shown)
VH: EVQLQQSGPELVKPGASMKISCKASGYSFTGYTMNWVKQSHGKNLEWIGLINPYNGGTNYNQKFKGKATLTVDKSSSTAYMELLSLTSEDSAVYYCAFSYYGSRGFYFDYWGQGTTLTVSS
VL: QIVLTQSPALMSASPGEKVTMTCSATSSVSYIYWYQQKPRSSPKPWIYLTSNLASGVPARFSGSGSGTSYSLTISSMEAEDAATYYCQQWSSNPPTFGGGTKLEIKR
notes: expressed in CHO cells

No constants are given. Whether binding was seen depends on the method and setting.

The first test has as its target TrKB. Briefly: ELISA, antibody 0.019-20 µg/mL. On the technique in general: In an ELISA, binding on a coated surface is turned into a signal by an enzyme label.
B1: the binding entry was “no binding (tested: 20 µg/mL)”.

For the molecule B2, the binding result is reported as “no binding (tested: 20 µg/mL)”.

Take B3: the binding entry was “no binding (tested: 20 µg/mL)”.

Turning to B4, the binding entry is given as “no binding (tested: 20 µg/mL)”.

Consider B5, for which the binding result is reported as “no binding (tested: 20 µg/mL)”.

In the case of B6, the binding entry was “no binding (tested: 20 µg/mL)”.

For the molecule B7, the binding entry is “no binding (tested: 20 µg/mL)”.

The next test deals with TrKC. As to the kind of experiment: ELISA, antibody 0.019-20 µg/mL.
Take B1: the binding entry is “no binding (tested: 20 µg/mL)”.

For the molecule B2, the binding result is listed as “no binding (tested: 20 µg/mL)”.

For the molecule B3, the binding result was “no binding (tested: 20 µg/mL)”.

For the molecule B4, the binding result was “no binding (tested: 20 µg/mL)”.

B5: the binding entry was “no binding (tested: 20 µg/mL)”.

For the molecule B6, the binding result was “no binding (tested: 20 µg/mL)”.

As for B7, the binding result was “no binding (tested: 20 µg/mL)”.

In the next test the target is TrKC. Briefly: ELISA, antibody titrated 0.019-20 µg/mL on TrKC.
For B1, the binding entry was “no binding (tested: 20 µg/ml)”.

Take B2: the binding entry is listed as “no binding (tested: 20 µg/mL)”.

Regarding B3, the binding entry was “no binding (tested: 20 µg/ml)”.

In the case of B4, the binding entry was “no binding (tested: 20 µg/mL)”.

Take B5: the binding result is given as “no binding (tested: 20 µg/mL)”.

Consider B6, for which the binding result is given as “no binding (tested: 20 µg/ml)”.

On to B7, for which the binding result is reported as “no binding (tested: 20 µg/mL)”.

Another test deals with TrKB. As to the kind of experiment: ELISA, antibody titrated 0.019-20 µg/mL on TrKB.
Regarding B1, the binding result was “no binding (tested: 20 µg/ml)”.

B2: the binding entry was “no binding (tested: 20 µg/mL)”.

Consider B3, for which the binding result is “no binding (tested: 20 µg/ml)”.

For the molecule B4, the binding entry was “no binding (tested: 20 µg/mL)”.

In the case of B5, the binding entry was “no binding (tested: 20 µg/mL)”.

Take B6: the binding result was “no binding (tested: 20 µg/ml)”.

For the molecule B7, the binding entry was “no binding (tested: 20 µg/mL)”.
